Source: PMC10564455
Where two headings read alike, the source gives them in different places. These are yes or no findings as the source states them, for the method shown. In cells and extracts the contact can be indirect. Here binding means that the protein was enriched with, or labelled near, the bait; the list need not be complete.

Amino acid sequences for entries named in this document (tags omitted). Residues count along the entry.
UniProt P13816, residues 26-678: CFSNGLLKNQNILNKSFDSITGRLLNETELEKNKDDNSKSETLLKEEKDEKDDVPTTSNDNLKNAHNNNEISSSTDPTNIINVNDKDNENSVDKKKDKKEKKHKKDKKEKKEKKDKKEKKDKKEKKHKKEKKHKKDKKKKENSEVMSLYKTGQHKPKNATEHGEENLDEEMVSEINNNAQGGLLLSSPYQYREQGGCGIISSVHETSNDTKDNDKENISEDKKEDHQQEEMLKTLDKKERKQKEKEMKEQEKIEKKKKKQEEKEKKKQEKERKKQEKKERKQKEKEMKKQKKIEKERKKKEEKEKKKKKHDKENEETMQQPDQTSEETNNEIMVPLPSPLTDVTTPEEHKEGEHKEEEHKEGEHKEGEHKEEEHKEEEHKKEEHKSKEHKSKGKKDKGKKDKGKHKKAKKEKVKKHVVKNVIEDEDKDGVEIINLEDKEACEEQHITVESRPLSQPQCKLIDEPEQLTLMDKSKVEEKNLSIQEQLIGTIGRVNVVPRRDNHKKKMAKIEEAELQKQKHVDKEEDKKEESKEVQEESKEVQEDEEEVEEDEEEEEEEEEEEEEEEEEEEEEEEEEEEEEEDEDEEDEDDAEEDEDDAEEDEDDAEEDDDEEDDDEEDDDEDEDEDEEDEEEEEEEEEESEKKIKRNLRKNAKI

What was measured:
Test in all cases: proximity labelling
[1] = biological target: KAHRP-TurboID (P. falciparum) (UniProt Q9TY99)
[2] = biological target: PTP4-TurboID (P. falciparum)
[3] = biological target: KAHRP-TurboID (P. falciparum) (UniProt Q9TY99); remark: listed apart in the source

Molecule | binding [1] | binding [2] | binding [3]
GARP (from UniProt P13816 26-678) | binds |  | 
PF3D7_0702500 (protein, UniProt Q8IC42 1-253) MAYPLLEDDLRSIRVAFGTCPGNSTMQFGERFWQGFFFGVIIFFVLSKYIRSYKKRKGMRILKSSSVTKGRLYRGTVFDEDDNVDGHHKKTKAHGLFEEIEKRNGFDLNDDTTNSNNLGEGTHSAVHNLDGQKESQLYKNNSDGSTENHLSGSNSDGRNSSQHSVGSHSVSSQEHKKEHSTHDLPAGRNYSLGNLSTGTTSQGSTSSRHYSLGGQPSSSGRSFSGSKYNTSNLASSSTTESSVSGLNTNEAHV |  | binds | binds
